# Screening data, single-dose tests

Chains of the proteins cited; added tags and fusions are not shown. Residues count along the entry.
UniProt Q8IDJ8, 1-583: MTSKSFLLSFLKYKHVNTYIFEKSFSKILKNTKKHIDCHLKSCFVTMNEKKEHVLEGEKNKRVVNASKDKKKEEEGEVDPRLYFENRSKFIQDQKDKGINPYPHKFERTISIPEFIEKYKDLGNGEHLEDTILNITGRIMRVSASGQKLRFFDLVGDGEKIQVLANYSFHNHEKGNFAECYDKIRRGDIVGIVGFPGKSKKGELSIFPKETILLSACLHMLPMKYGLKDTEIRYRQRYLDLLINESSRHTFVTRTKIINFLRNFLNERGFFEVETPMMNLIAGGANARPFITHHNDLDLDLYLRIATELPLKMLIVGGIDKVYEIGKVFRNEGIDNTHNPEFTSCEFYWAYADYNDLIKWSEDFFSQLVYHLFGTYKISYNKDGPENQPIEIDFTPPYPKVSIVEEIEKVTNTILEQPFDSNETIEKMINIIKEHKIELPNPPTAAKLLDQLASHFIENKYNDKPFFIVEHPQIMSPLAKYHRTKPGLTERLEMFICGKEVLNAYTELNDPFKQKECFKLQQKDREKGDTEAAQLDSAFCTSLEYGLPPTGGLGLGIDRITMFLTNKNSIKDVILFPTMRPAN
UniProt I6X8D2, whole entry: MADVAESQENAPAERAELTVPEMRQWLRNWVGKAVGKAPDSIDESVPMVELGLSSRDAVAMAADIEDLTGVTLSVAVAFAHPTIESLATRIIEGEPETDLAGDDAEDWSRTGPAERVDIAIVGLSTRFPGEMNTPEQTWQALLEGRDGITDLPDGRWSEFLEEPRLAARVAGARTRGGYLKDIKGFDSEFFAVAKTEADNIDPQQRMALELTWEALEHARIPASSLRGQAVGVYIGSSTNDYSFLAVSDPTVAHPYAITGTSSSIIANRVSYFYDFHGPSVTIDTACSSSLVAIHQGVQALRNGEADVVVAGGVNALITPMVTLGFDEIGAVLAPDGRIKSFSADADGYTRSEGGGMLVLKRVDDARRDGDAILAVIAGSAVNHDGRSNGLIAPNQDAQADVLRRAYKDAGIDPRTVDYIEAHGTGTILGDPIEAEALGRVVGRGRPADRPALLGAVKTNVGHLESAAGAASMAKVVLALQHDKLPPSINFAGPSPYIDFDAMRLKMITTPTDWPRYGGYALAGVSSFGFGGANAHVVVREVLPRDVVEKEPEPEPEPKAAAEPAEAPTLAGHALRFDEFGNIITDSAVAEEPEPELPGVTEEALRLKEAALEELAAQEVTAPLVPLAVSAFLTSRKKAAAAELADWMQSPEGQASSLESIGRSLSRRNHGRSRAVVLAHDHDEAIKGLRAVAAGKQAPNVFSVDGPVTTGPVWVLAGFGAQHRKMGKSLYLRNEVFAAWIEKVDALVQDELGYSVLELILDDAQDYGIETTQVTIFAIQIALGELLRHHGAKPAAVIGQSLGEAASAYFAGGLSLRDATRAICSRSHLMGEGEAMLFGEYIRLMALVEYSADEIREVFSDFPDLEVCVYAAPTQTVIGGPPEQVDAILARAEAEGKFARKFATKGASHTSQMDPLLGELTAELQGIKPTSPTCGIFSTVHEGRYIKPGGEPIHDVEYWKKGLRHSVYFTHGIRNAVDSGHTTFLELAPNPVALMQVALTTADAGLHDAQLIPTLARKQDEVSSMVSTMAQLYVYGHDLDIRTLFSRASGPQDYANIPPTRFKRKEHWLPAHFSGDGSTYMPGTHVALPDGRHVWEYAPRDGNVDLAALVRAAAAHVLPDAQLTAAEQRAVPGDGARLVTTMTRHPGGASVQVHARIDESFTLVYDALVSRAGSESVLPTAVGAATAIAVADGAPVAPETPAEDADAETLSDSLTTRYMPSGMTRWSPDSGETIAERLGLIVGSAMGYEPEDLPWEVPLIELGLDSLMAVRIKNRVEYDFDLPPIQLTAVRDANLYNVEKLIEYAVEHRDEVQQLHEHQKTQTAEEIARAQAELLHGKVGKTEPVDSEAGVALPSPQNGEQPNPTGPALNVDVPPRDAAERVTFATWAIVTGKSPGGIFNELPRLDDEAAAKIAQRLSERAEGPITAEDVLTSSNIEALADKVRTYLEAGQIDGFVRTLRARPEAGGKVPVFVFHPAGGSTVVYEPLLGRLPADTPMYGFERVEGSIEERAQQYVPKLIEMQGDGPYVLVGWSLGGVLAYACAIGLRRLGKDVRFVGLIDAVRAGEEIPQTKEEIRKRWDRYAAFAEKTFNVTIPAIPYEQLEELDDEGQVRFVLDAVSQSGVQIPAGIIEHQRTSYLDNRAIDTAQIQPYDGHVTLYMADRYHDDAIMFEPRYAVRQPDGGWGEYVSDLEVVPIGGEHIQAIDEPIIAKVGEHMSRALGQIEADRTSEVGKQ
UniProt P9WNZ1, whole entry: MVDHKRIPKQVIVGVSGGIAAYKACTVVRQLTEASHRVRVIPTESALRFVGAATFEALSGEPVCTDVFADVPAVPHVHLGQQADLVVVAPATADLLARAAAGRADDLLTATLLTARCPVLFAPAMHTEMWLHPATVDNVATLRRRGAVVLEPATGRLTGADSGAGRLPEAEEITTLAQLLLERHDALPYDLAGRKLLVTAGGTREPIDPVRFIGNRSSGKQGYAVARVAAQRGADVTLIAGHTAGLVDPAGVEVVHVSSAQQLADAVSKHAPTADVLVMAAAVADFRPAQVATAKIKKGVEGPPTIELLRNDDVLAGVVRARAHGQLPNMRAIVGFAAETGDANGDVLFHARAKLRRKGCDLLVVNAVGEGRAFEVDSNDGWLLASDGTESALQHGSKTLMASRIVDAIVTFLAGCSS
UniProt Q4DA54, 1-478: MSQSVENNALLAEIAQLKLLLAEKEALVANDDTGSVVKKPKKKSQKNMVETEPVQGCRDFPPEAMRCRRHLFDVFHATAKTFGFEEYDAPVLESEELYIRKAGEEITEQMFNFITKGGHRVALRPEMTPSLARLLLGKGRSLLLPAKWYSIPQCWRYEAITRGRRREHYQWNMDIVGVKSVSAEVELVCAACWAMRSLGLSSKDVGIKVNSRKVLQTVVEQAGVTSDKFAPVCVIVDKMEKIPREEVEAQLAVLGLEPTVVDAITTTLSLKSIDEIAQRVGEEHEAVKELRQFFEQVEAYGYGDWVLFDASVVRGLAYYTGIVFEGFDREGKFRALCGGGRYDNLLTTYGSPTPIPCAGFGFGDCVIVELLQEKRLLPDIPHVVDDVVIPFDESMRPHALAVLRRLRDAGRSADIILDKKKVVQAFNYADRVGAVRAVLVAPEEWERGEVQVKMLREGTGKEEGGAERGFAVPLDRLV
UniProt P9WFT3, whole entry: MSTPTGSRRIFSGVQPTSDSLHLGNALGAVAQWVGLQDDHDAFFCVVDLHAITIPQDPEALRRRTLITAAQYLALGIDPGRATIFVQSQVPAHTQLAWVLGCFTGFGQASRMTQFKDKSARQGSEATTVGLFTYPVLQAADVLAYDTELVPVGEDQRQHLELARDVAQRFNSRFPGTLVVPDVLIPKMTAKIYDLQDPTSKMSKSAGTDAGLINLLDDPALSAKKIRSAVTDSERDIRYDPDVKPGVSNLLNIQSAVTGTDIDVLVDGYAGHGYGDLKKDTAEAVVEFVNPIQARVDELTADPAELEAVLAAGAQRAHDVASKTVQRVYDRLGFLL
UniProt P9WPC5, whole entry: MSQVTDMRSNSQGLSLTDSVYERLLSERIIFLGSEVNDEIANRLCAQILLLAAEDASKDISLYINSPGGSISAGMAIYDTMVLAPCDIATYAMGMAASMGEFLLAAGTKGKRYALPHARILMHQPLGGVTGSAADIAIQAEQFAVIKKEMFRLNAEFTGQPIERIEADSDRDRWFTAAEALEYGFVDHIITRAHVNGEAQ
UniProt P9WPC3, whole entry partner: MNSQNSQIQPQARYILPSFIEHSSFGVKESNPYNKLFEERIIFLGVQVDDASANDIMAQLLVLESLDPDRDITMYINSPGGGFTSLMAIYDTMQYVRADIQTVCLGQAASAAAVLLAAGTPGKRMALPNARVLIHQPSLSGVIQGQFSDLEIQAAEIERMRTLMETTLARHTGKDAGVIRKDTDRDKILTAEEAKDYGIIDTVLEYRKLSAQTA

Values are the deposited “Percent Effect”, in %.
The controls that fix the scale are not given in the record; negative values are as filed.
Compounds were drawn at random from those tested, without regard to their results.
Two or more numbers in one place are separate tests of the same structure; such repeats can differ widely.

PfKRS1: 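Enzyme assay of the cytosolic lysyl-tRNA synthetase in 384-well plates, read by luminescence. Target: Lysine-tRNA ligase, Plasmodium falciparum 3D7 (UniProt Q8IDJ8). Concentration: 30 µM. Direction is inferred from only a few compounds that gave an IC50; most scored high, so higher reads as stronger inhibition. Of about 69,000 compounds tested this way, about 49 (0.071%) reached 50% or more in at least one test.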
Pks13 thioesterase: 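Polyketide synthase Pks13, Mycobacterium tuberculosis (UniProt I6X8D2). Enzyme assay of the thioesterase domain of polyketide synthase 13; the read-out is not stated. Concentration: 30 µM. Higher reads as stronger inhibition (inferred from which compounds were picked for retests). Of about 67,000 compounds tested this way, about 300 (0.46%) reached 50% or more in at least one test.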
CoaBC: 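Coenzyme A biosynthesis protein CoaBC, Mycobacterium tuberculosis (UniProt P9WNZ1). Enzyme assay of CoaBC with a phosphate dye (Biomol Green) read at 650 nm. Tested at 30 µM. Direction is inferred from only a few compounds that gave an IC50; most scored high, so higher reads as stronger inhibition. Most strong results did not repeat in a second test. Size under these conditions: about 67,000 compounds, about 40 of them at 50% or above in at least one test.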
TcHisRS: 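Histidine-tRNA ligase, Trypanosoma cruzi CL Brener (UniProt Q4DA54). Enzyme assay of histidyl-tRNA synthetase; the read-out is not stated. Compounds at 30 µM. Direction is inferred from retests: higher values go with stronger inhibition. About 69,000 compounds were tested under these conditions; 0.045% (about 31) showed 50% or more at least once.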
MtTrpRS: 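Tryptophan-tRNA ligase, Mycobacterium tuberculosis (UniProt P9WFT3). Enzyme assay of tryptophanyl-tRNA synthetase; the read-out is not stated. Compounds at 10 µM. Direction is not recorded; retested compounds ran higher, which suggests that high means inhibition. Of about 65,000 compounds tested this way, about 64 (0.098%) reached 50% or more in at least one test.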
ClpP1P2: 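Protease assay of ClpP1P2, read by the AMC dye that it sets free. Target: ClpP1P2, Mycobacterium tuberculosis (UniProt P9WPC5 and UniProt P9WPC3). Concentration: 50 µM. Direction is inferred from only a few compounds that gave an IC50; most scored high, so higher reads as stronger inhibition. Most other retested compounds had strongly negative values. Size under these conditions: about 69,000 compounds, about 10 of them at 50% or above in at least one test.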

COc1ccc(S(=O)(=O)NCC(C)(O)c2cccs2)cc1Cl (stereo not given) gave PfKRS1: 5.153%; Pks13 thioesterase: -38.23%; CoaBC: 4.622%; TcHisRS: 0%; MtTrpRS: 8.919%; ClpP1P2: -1.83%. CN(C)c1cccc(C(=O)N2CCC(c3n[nH]c(C4CC4)n3)CC2)c1 read PfKRS1: -1.325%; Pks13 thioesterase: -20.26%; CoaBC: 8.015%; TcHisRS: 2.254%; MtTrpRS: 3.067%; ClpP1P2: 1.519%. Result for CCOC(=O)CC(c1cccc(OC)c1OC)c1c(C)[nH][nH]c1=O (stereo not given) was PfKRS1: 2.563% & -1.741%; Pks13 thioesterase: -21.48% & -17.58%; CoaBC: -5.425% & -1.651%; TcHisRS: 4.124% & 6.186%; MtTrpRS: 2.925% & -1.386%; ClpP1P2: -8.981% & -2.584%. Result for Cc1nc(-c2ccsc2)ccc1C(=O)NCC(C)N1CCOCC1 (stereo not given) was PfKRS1: -2.152%; Pks13 thioesterase: -2.689%; CoaBC: 8.492%; TcHisRS: 5.917%; MtTrpRS: -5.085%; ClpP1P2: -65.6%.

For CCOCC(O)c1nc2c([nH]1)CC(C)(C)CNC2=O (stereo not given) the result was PfKRS1: -1.087%; Pks13 thioesterase: -1.32%; CoaBC: -0.6075%; TcHisRS: -6.931%; MtTrpRS: -3.055%; ClpP1P2: -18.33%. Cc1noc(C)c1CCCNC(=O)C1CCCN(C(=O)C2CC2)C1 (stereo not given) gave PfKRS1: 4.661%; Pks13 thioesterase: -3.75%; CoaBC: 2.273%; TcHisRS: 8.108%; MtTrpRS: -1.338%; ClpP1P2: -3.563%. With CC(C)NS(=O)(=O)c1cc(C(=O)O)cc(-c2ccccc2CN(C)C)c1 the screen gave PfKRS1: 9.748%; Pks13 thioesterase: -7.606%; CoaBC: -3.524%; TcHisRS: 5.085%; MtTrpRS: -5.532%; ClpP1P2: -15.1%. Result for CCc1ccc(CN(C)C(=O)c2cnc3c(c2)nc(N)n3CC)nc1 was PfKRS1: -1.135%; Pks13 thioesterase: -28.02%; CoaBC: -0.3802%; TcHisRS: 5.603%; MtTrpRS: 2.21%; ClpP1P2: -7.299%.

Result for CC(CNC(=O)c1c[nH]nn1)Oc1ccccc1Br (stereo not given) was PfKRS1: 0.1574%; Pks13 thioesterase: -72.86%; CoaBC: -0.489%; TcHisRS: 2.062%; MtTrpRS: -2.114%; ClpP1P2: -12.75%. Result for CC(C)N1CCC2(C=C(C(=O)N(C)C)c3ccccc32)CC1 was PfKRS1: 0.8987%; Pks13 thioesterase: -21.28%; CoaBC: 2.773%; TcHisRS: -0.9901%; MtTrpRS: 2.008%; ClpP1P2: 5.616%. Result for Cc1cc(C(C)(O)CNC(=O)OC(C)(C)C)c(C)o1 (stereo not given) was PfKRS1: 0.2117%; Pks13 thioesterase: -44.05%; CoaBC: 3.212%; TcHisRS: 3.665%; MtTrpRS: -0.9723%; ClpP1P2: -0.4597%. Result for CC(C)OCc1ncn2c1CN(CC1CC1)CCC2 was PfKRS1: -5.387%; Pks13 thioesterase: -45.15%; CoaBC: -1.523%; TcHisRS: 4.926%; MtTrpRS: 6.502%; ClpP1P2: -2.918%.

For Cc1cc(NC(=O)CCN2CCCCC2Cn2cncn2)no1 (stereo not given) the result was PfKRS1: 0.124%; Pks13 thioesterase: -7.245%; CoaBC: -1.118%; TcHisRS: 0.8596%; MtTrpRS: 9.323%; ClpP1P2: 2.665%. FC(F)Sc1ccc(NCc2nnc(C3CC3)o2)cc1 read PfKRS1: 0.08532%; Pks13 thioesterase: -10.18%; CoaBC: -0.2415%; TcHisRS: 8.387%; MtTrpRS: -3.818%; ClpP1P2: -8.276%. With O=C(N1CCOCC1)N1CCN(c2ccncc2Cl)CC1 the screen gave PfKRS1: 8.899%; Pks13 thioesterase: -66.46%; CoaBC: -6.827%; TcHisRS: 4.255%; MtTrpRS: 4.641%; ClpP1P2: 2.078%. Result for O=C(CS(=O)(=O)Cc1ccc(F)cc1)NC1CCCCNC1=O (stereo not given) was PfKRS1: 3.513%; Pks13 thioesterase: -7.693%; CoaBC: 2.628%; TcHisRS: 4.571%; MtTrpRS: 4.496%; ClpP1P2: -10.79%.

For O=C1CC2(CCN(Cc3cccnc3)C2)CN1c1ccc2c(c1)OCO2 (stereo not given) the result was PfKRS1: -0.105%; Pks13 thioesterase: 0.1629%; CoaBC: -0.4202%; TcHisRS: 5.785%; MtTrpRS: -2.092%; ClpP1P2: 4.535%. Result for COc1ccc(C2=CCN(C(=O)CN(C)S(C)(=O)=O)CC2)cc1 was PfKRS1: -0.1052%; Pks13 thioesterase: 4.71%; CoaBC: 4.724%; TcHisRS: 5.714%; MtTrpRS: -9.284%; ClpP1P2: -9.975%. With CN(C)C(=O)Cn1ccc2cc(NC(=O)N3CCSCC3)ccc21 the screen gave PfKRS1: 4.646%; Pks13 thioesterase: -12.37%; CoaBC: 5.217%; TcHisRS: 12.3%; MtTrpRS: -2.601%; ClpP1P2: 3.585%. With CCN1CCCC1CNCc1cc2ccccc2[nH]c1=O (stereo not given) the screen gave PfKRS1: 3.589%; Pks13 thioesterase: 9.315%; CoaBC: -5.701%; TcHisRS: 8.462%; MtTrpRS: -8.492%; ClpP1P2: -1.082%.

C[C@@H](CO)NC(=O)c1ccc2nc(NS(C)(=O)=O)sc2c1 read PfKRS1: -1.155%; Pks13 thioesterase: -8.857%; CoaBC: 1.823%; TcHisRS: 8.911%; MtTrpRS: -2.894%; ClpP1P2: -1.493%. COc1ccc(C)cc1CN1CCn2cccc2C1C (stereo not given) gave PfKRS1: 5.97%; Pks13 thioesterase: -9.061%; CoaBC: -27.27%; TcHisRS: 41.67%; MtTrpRS: 3.403%; ClpP1P2: -2.016%. With Cc1cc(C(=O)O)cc(S(=O)(=O)Nc2ccc3c(c2)OCCCO3)c1C the screen gave PfKRS1: 0.9705%; Pks13 thioesterase: -9.487%; CoaBC: 2.895%; TcHisRS: 6.158%; MtTrpRS: 1.203%; ClpP1P2: -7.483%.

The first 2 entries again:

SMILES	PfKRS1	Pks13 thioesterase	CoaBC	TcHisRS	MtTrpRS	ClpP1P2
COc1ccc(S(=O)(=O)NCC(C)(O)c2cccs2)cc1Cl (stereo not given)	5.153	-38.23	4.622	0	8.919	-1.83
CN(C)c1cccc(C(=O)N2CCC(c3n[nH]c(C4CC4)n3)CC2)c1	-1.325	-20.26	8.015	2.254	3.067	1.519

From ChEMBL document CHEMBL3988442, “University of Dundee, Small-Polar-MMV Screening Library” (2021).